Drawing on PubChem BioAssay AID1487 (National Center for Advancing Translational Sciences (NCATS), 2009), this text covers AC50 for 56 molecules.

The nature of the experiment: qHTS Assay for Modulators of Lamin A Splicing. The conditions noted are these: HeLa LMNA splicing GFP/RFP minigene ratio, 48 h. Summed up: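 S3 HeLa stable clones carrying a lamin A-EGFP splicing minigene plus DsRed2 were seeded at 600 cells/well in Opti-MEM with 2% FBS, pin-dosed and incubated 48 h at 37°C. Acumen cytometry (488 nm) gave the GFP/RFP total-intensity ratio.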
In general terms: Quantitative high-throughput screening tests each substance at several concentrations.

Where [1] appears, read: measured here: GFP splicing reporter channel.
Setting [2] is: measured here: RFP viability control channel.

Structures are written as SMILES. “And” between values parts separate entries of the source, which are not always exact repeats. Equal values may be shown once. The list shows a part of the results. The main result of the screen is listed elsewhere. These columns were measured beside it and carry no call. Most of these compounds were active or inconclusive in the main read-out, so they are no random draw. The note in brackets gives the kind of curve behind each potency; many fits are weak.

`CCC(Sc1nc2ccsc2c(=O)n1-c1ccc(Cl)c(C)c1)C(=O)NCc1ccco1` (stereo not drawn): the AC50 under setting [1] was 35.5 µM [rising, single point] and the AC50 under setting [2] is 35.5 µM [rising, single point].

`O=C(CC1(O)C(=O)Nc2ccccc21)c1ccccc1O` (stereo not drawn): the half-maximal activity concentration (AC50) under setting [2] was 6.31 µM [falling, partial curve].

Take `O=C1[C@@H]2Cc3c([nH]c4ccccc34)[C@@H](c3ccccc3)N2C(=O)[C@@H]2Cc3c([nH]c4ccccc34)[C@@H](c3ccccc3)N12`: the half-maximal activity concentration (AC50) was 1.41 µM [rising, partial curve] under setting [1] and 0.501 µM [rising, full curve] under setting [2].

As for `CCOc1ccc(-c2cc(C(=O)NCCc3ccc(C)cc3)c3ccccc3n2)cc1`, the AC50 is, setting by setting: under setting [1], 7.08 µM [falling, partial curve, poor fit]; under setting [2], 10 µM [falling, partial curve, poor fit].

On to `COc1ccc(-c2coc3cc(O)cc(O)c3c2=O)cc1`, for which, under setting [2], the AC50 is 28.2 µM [rising, single point].

As for `COc1ccccc1OCCOCCOc1c(C)cc(C)cc1Br`, the AC50 under setting [2] is 35.5 µM [rising, single point].

With `CC(=O)OCCN(C)c1cc(SC(C)C)c2nonc2c1[N+](=O)[O-]`, the AC50 under setting [2] was 0.0355 µM [rising, full curve, poor fit].

In the case of `Cn1cc(-c2nc3cnc(OCc4ccccc4)nc3n(CCC#N)c2=O)c2ccccc21`, the AC50 under setting [1] was 12.6 µM [falling, partial curve].

As to `O=c1c2c(nc3n1CCCCC3)-c1ccccc1CC21CCCC1`, the half-maximal activity concentration (AC50) under setting [2] is 17.8 µM [rising, single point].

In the case of `CCN(CC)C(=O)c1ccc2c3c(cccc13)C(=O)N(CCc1ccc(OC)c(OC)c1)C2=O`, the concentration at half-maximal activity (AC50) under setting [2] is 20 µM [rising, partial curve, poor fit].

With `COC(=O)c1ccccc1NC(=O)Cn1cnc2cc(C)c(C)cc21`, the AC50 under setting [2] was 22.4 µM [rising, partial curve].

Take `O=C(NC1CCCCC1)c1ccc(CSc2nc3cccnc3n2Cc2ccccc2)cc1`: the half-maximal activity concentration (AC50) under setting [1] is 0.794 µM [falling, full curve, poor fit].

As for `CC(=O)Nc1cccc(NC(=O)CSc2nccn2Cc2ccccc2)c1`, the AC50 under setting [2] is 0.501 µM [falling, full curve].

`Cc1cccc2nc(CSc3nc4ccc([N+](=O)[O-])cc4[nH]3)c(Br)n12`: the AC50 is, setting by setting: under setting [1], 14.1 µM [rising, single point]; under setting [2], 17.8 µM [rising, partial curve, poor fit].

Take `CCCn1c(=O)c(Cc2ccccc2)c(O)c2ccccc21`: the AC50 is, setting by setting: under setting [1], 0.501 µM [falling, partial curve]; under setting [2], 0.501 µM [falling, partial curve].

With `CCOC(=O)c1c(N)n(-c2ccc(OCC)cc2)c2nc3ccccc3nc12`, the AC50 under setting [2] is 0.562 µM [falling, partial curve].

For `Cc1ccc(C2CC(=O)NC(SCC(N)=O)=C2C#N)s1` (stereo not drawn), under setting [1], the AC50 is 35.5 µM [rising, partial curve].

Regarding `O=S(=O)(NCCNC/C=C/c1ccc(Br)cc1)c1cccc2cnccc12`, the concentration at half-maximal activity (AC50) runs as follows: under setting [1], 11.2 µM [falling, partial curve]; under setting [2], 12.6 µM [falling, partial curve].

As for `O=C(CCCCCn1c(=O)[nH]c2ccccc2c1=O)N1CCN(c2cccc(C(F)(F)F)c2)CC1`, under setting [2], the AC50 was 0.0126 µM [falling, full curve, poor fit].

Regarding `CN(NC(=O)c1ccccc1)c1nc2ccccc2nc1C(F)(F)F`, the AC50 under setting [2] is 1.12 µM [rising, partial curve, poor fit].

`OCC1OC(n2cnc3c(=S)nc[nH]c32)C(O)C1O` (stereo not drawn): the AC50 is 1.41 µM [rising, full curve] and 100 nM [rising, full curve, poor fit] under setting [1]; 891 nM [rising, full curve] and 25.1 nM [rising, full curve] under setting [2].

As for `Cc1ccc(NCCC(=O)c2cccc([N+](=O)[O-])c2)c(C)c1`, the AC50 under setting [2] is 3.98 µM [rising, full curve, poor fit].

For the molecule `C[C@H](NC(=O)/C(C#N)=C/c1ccc(O)c(O)c1)c1ccccc1`, the AC50 under setting [1] was 12.6 µM [falling, partial curve, poor fit].

Take `FC(F)(F)c1cc(-c2ccco2)nc(NCc2ccc(Cl)cc2)n1`: under setting [1], the AC50 is 11.2 µM [rising, partial curve].

As to `O=c1[nH][nH]c(-c2ccccc2O)c1C(C[N+](=O)[O-])c1ccc(Cl)cc1Cl` (stereo not drawn), the AC50 is 0.708 µM [rising, partial curve] under setting [1] and 0.316 µM [rising, partial curve, poor fit] under setting [2].

With `Cc1cc(C)c[n+](CC(=O)c2ccc(-c3ccccc3)cc2)c1`, the AC50 was 8.91 µM [rising, partial curve, poor fit] under setting [1] and 8.91 µM [rising, partial curve, poor fit] under setting [2].

On to `Cc1nc(NC(=O)CC(C)C)sc1-c1csc(Nc2ccc(Cl)cc2Cl)n1`, for which the AC50 under setting [2] is 10 µM [rising, single point].

For the molecule `COc1ccc(/C=C2\N=C(C)N(c3ccc4ccccc4c3)C2=O)cc1OC`, the AC50 by setting is: under setting [1], 0.794 µM [rising, full curve, poor fit]; under setting [2], 0.708 µM [rising, full curve, poor fit].

As to `CCCCC(NS(=O)(=O)c1ccc(OC)cc1)C(=O)O` (stereo not drawn), the AC50 under setting [1] was 35.5 µM [rising, single point].

As for `Cn1ccc2cc(S(=O)(=O)N3CCCC(C(=O)NCc4ccccc4F)C3)ccc21` (stereo not drawn), the AC50 under setting [1] was 14.1 µM [falling, partial curve].

Consider `CC1CN(CCCCOc2ccc(F)cc2)CC(C)O1` (stereo not drawn), for which the AC50 under setting [1] is 0.0398 µM [rising, partial curve, poor fit].

In the case of `COc1cccc(CN2CCN(c3nc4nonc4nc3NC3CC3)CC2)c1`, the AC50 under setting [1] is 0.0126 µM [falling, full curve, poor fit].

Regarding `COc1ccc(CN(C)CC(=O)Nc2ccccc2-c2ccccc2)c(OC)c1`, the AC50 under setting [1] was 14.1 µM [rising, partial curve] and the AC50 under setting [2] is 14.1 µM [rising, single point].

As for `Cc1nnc(NC(=O)c2ccc(S(=O)(=O)N3CCCCCC3)cc2)o1`, the AC50 under setting [1] was 10 µM [falling, partial curve, poor fit].

Turning to `COc1cccc(C(=O)COc2ccc3c(C)c(Cc4ccccc4)c(=O)oc3c2)c1`, the AC50 under setting [2] was 35.5 µM [rising, single point].

Regarding `Cc1ccc(F)cc1NC(=O)CCOc1ccccc1`, the AC50 under setting [2] is 20 µM [rising, single point].

On to `Cn1c(=O)c2c(nc(NCc3ccco3)n2CCc2ccccc2)n(C)c1=O`, for which the AC50 under setting [2] is 12.6 µM [rising, partial curve].

In the case of `COc1cc(C(=O)N/N=C(\C)c2ccc3c(c2)OCO3)cc(OC)c1OC`, the AC50 under setting [2] was 3.55 µM [falling, single point].

`COCCNc1ncncc1-c1ccccc1OC`: the AC50 under setting [2] was 17.8 µM [falling, partial curve].

In the case of `CC(CCc1ccccc1)NC(=O)C1CCN(c2nnc(-n3cccc3)s2)CC1` (stereo not drawn), the AC50 under setting [2] was 12.6 µM [rising, partial curve].

As to `CN(Cc1ccccc1)c1ncnc2ccc(Br)cc12`, the AC50 was 15.8 µM [rising, single point] under setting [1] and 35.5 µM [rising, single point] under setting [2].

`O=C(CN1C(=O)C2CC=CCC2C1=O)Nc1nc2ccc(F)cc2s1` (stereo not drawn): the half-maximal activity concentration (AC50) under setting [1] was 0.355 µM [rising, partial curve].

For the molecule `COc1ccccc1NC(=O)c1cc(Sc2nncn2C)nc2ccccc12`, under setting [2], the AC50 was 3.98 µM [rising, partial curve, poor fit].

On to `COc1cc(OC)c2c(c1)S(=O)(=O)C(c1ccccc1)=C2N`, for which, under setting [2], the concentration at half-maximal activity (AC50) is 0.0224 µM [falling, full curve, poor fit].

In the case of `Nc1ccc2nc(-c3ccc(N)c(Cl)c3)[nH]c2c1`, under setting [2], the AC50 is 5.01 µM [rising, partial curve].

As for `O=C(NCc1cccs1)c1cc(-c2ccncc2)nc2ccc(Br)cc12`, the AC50 under setting [1] is 35.5 µM [rising, single point].

As to `CCOc1cc(S(=O)(=O)Nc2ccc(CC)cc2)ccc1Cl`, the AC50 under setting [2] is 12.6 µM [rising, partial curve].

As to `CC(=O)N1CCCc2cc(S(=O)(=O)Nc3ccc(OC(F)(F)F)cc3)ccc21`, the AC50 under setting [1] is 0.794 µM [rising, single point] and the AC50 under setting [2] is 0.501 µM [rising, full curve, poor fit].

Regarding `Cn1c(=O)[nH]c2cc(Cl)cnc21`, the AC50 reads like this: under setting [1], 35.5 µM [falling, single point]; under setting [2], 35.5 µM [falling, single point].

`Cc1cc([N+](=O)[O-])nn1CC(=O)Nc1ccc(Cc2ccncc2)cc1`: under setting [2], the half-maximal activity concentration (AC50) was 31.6 µM [rising, single point].

As for `CCc1ccc2c(Cl)c(C(=O)N/N=C/c3c[nH]c4ccccc34)sc2c1`, the AC50 is 14.1 µM [falling, single point] under setting [1] and 20 µM [falling, single point] under setting [2].

For the molecule `COc1ccc(-c2cc(C(F)F)n3ncc(C(=O)N4CCc5ccccc54)c3n2)cc1`, the AC50 reads like this: under setting [1], 0.282 µM [falling, full curve]; under setting [2], 0.316 µM [falling, full curve].

As to `COc1cc(/C=N/NC(=O)c2c(C)nnn2-c2nonc2N)ccc1O`, the AC50 under setting [2] was 3.55 µM [rising, full curve].

In the case of `O=C(c1cc(-c2ccccc2)nc2ccccc12)N1CCc2ccccc2C1`, the AC50 under setting [1] is 25.1 µM [falling, single point].

As to `CCCc1cc(=O)n2[nH]c(-c3ccc(Br)cc3)cc2n1`, the AC50 under setting [2] was 35.5 µM [rising, single point].

As to `COc1ccc(N(C(=O)CCl)C(C(=O)NCCc2ccccc2)c2cccs2)cc1` (stereo not drawn), the AC50 under setting [1] is 35.5 µM [falling, single point] and the AC50 under setting [2] is 35.5 µM [falling, single point].

By AC50 is commonly meant the midpoint of the concentration-response curve, whichever way the signal moves.
